According to the supplement of paper PMC6411743:
± gives the standard deviation of the averaged measurements. The list shows a part of the results.

The chains behind the UniProt entries cited, without tags or fusion partners. Where a name states a change or a piece, a line headed by the entry shows the natural chain unless it says otherwise.
UniProt Q99961: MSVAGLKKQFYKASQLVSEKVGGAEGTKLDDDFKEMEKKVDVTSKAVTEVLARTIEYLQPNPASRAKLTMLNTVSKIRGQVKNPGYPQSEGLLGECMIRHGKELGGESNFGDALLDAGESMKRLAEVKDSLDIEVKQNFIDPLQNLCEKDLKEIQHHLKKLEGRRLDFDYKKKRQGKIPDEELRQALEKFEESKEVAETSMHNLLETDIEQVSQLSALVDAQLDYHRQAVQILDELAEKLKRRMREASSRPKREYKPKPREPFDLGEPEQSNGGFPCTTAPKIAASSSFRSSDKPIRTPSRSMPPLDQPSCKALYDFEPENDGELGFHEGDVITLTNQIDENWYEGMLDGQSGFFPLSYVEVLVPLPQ
UniProt Q96RS0: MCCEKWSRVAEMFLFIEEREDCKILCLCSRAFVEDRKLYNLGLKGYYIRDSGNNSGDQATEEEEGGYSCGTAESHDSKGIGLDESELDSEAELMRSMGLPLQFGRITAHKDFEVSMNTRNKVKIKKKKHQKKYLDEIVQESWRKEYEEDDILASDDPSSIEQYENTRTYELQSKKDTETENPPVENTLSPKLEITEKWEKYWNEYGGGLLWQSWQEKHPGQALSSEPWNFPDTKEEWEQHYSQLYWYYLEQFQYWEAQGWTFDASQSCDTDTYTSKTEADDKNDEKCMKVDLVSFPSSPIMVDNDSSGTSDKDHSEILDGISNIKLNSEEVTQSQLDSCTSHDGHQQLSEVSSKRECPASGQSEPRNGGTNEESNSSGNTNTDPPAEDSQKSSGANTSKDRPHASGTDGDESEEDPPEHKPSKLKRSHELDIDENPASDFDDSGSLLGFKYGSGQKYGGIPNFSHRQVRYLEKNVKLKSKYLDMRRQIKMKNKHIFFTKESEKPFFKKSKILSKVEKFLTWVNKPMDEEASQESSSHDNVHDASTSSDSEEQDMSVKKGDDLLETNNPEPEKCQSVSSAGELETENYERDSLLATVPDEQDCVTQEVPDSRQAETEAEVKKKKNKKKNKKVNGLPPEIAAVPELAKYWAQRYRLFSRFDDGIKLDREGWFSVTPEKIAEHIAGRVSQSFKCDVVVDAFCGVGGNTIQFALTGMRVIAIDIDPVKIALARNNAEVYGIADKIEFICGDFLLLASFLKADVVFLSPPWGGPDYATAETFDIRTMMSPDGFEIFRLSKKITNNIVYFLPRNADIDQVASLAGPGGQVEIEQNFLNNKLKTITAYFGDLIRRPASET
UniProt Q99714: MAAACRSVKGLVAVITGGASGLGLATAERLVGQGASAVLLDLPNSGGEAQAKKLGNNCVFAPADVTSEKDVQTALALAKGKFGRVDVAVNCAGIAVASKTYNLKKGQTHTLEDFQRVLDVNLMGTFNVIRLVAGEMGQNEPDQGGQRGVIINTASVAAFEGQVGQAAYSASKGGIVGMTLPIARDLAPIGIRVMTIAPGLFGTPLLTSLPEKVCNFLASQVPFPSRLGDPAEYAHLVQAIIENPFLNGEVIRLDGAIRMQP
UniProt Q9BRF8, whole entry: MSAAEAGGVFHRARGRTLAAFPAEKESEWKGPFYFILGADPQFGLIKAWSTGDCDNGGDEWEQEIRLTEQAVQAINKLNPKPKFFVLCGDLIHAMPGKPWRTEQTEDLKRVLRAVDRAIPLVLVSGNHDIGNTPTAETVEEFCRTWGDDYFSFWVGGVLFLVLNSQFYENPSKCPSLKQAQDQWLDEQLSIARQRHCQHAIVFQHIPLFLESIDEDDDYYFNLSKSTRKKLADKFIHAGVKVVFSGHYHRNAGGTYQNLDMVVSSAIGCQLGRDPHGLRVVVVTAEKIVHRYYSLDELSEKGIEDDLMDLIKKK
UniProt Q9BZ95: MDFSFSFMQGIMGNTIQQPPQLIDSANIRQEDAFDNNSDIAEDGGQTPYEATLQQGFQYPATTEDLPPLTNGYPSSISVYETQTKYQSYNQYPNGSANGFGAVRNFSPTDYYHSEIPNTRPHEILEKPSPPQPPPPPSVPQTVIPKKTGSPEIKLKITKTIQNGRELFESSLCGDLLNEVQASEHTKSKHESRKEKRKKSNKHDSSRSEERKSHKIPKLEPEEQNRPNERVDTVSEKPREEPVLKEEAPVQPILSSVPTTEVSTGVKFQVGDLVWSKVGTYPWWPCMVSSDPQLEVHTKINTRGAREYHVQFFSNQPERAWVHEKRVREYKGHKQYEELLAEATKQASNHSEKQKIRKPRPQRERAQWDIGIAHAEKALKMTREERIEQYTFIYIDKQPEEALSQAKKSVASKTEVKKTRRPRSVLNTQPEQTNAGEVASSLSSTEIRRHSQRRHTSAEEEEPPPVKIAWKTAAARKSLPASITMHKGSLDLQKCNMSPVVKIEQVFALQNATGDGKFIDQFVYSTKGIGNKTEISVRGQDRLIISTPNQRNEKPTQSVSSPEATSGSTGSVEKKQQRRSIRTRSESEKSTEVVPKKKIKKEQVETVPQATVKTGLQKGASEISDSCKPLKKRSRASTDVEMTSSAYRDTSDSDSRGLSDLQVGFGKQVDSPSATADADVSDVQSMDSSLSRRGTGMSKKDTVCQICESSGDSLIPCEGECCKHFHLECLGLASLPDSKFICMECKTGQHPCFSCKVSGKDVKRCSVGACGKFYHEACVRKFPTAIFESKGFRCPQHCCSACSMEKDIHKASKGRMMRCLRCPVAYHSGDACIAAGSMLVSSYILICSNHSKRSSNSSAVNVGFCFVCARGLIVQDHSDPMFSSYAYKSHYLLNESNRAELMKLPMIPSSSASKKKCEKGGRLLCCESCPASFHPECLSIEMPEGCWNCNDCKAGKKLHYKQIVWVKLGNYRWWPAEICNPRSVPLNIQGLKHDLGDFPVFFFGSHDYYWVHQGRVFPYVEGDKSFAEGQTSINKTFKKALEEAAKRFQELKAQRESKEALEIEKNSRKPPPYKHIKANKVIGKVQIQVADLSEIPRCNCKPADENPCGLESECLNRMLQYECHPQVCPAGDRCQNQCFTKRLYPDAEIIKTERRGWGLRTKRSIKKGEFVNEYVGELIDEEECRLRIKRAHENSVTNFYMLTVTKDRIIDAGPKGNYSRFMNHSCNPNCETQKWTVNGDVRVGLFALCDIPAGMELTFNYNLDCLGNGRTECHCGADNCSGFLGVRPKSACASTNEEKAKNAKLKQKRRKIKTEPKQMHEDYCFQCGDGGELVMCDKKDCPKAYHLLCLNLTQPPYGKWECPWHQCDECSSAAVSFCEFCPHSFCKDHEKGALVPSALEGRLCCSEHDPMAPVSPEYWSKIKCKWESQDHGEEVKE
UniProt Q9BZE9, whole entry: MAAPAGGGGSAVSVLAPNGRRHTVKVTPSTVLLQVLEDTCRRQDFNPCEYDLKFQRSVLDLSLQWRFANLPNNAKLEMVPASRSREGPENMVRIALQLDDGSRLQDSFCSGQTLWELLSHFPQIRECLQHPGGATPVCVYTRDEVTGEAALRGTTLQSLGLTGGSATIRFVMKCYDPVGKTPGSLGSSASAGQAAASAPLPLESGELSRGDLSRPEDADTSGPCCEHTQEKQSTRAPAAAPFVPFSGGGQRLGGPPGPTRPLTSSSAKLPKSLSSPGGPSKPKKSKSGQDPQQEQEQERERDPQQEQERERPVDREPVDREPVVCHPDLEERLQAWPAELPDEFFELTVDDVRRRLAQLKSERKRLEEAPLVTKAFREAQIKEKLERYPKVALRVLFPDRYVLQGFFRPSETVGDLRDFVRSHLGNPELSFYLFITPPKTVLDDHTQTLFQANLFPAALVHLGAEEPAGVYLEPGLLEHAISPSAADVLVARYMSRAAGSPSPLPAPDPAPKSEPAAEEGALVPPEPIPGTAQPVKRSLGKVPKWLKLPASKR
UniProt Q9BRJ6: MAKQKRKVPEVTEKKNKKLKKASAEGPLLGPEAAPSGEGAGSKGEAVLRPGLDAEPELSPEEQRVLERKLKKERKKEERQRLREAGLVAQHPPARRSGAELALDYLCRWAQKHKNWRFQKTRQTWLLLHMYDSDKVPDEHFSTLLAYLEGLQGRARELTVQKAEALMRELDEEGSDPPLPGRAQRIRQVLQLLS
UniProt Q99497, whole entry: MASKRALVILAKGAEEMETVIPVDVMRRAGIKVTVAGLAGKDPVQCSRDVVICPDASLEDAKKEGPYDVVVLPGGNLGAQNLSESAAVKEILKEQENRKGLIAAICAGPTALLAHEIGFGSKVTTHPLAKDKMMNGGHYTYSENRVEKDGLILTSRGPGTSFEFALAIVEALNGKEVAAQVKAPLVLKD
UniProt Q96RS6: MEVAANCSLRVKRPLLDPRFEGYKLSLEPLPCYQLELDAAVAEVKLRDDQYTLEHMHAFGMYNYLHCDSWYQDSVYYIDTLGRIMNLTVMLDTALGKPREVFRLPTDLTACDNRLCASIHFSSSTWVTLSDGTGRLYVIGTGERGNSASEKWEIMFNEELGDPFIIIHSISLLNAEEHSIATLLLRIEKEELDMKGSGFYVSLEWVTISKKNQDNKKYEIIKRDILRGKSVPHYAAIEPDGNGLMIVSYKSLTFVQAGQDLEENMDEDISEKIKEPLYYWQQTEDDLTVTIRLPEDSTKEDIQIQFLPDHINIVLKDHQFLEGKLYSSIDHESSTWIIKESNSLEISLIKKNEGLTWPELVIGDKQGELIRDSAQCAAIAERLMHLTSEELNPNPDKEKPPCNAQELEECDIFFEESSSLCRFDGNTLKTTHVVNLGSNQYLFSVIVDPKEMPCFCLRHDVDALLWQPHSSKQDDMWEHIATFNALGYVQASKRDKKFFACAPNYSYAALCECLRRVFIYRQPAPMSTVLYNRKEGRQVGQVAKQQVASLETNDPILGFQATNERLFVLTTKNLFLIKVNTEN
UniProt Q9BVK6: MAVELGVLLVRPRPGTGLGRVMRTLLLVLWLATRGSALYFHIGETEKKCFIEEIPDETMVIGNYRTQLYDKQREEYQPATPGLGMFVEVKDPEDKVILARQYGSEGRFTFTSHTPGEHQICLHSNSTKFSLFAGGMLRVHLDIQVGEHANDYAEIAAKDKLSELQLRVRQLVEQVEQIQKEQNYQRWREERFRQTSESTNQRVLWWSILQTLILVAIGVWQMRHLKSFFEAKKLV
UniProt Q9BVI0: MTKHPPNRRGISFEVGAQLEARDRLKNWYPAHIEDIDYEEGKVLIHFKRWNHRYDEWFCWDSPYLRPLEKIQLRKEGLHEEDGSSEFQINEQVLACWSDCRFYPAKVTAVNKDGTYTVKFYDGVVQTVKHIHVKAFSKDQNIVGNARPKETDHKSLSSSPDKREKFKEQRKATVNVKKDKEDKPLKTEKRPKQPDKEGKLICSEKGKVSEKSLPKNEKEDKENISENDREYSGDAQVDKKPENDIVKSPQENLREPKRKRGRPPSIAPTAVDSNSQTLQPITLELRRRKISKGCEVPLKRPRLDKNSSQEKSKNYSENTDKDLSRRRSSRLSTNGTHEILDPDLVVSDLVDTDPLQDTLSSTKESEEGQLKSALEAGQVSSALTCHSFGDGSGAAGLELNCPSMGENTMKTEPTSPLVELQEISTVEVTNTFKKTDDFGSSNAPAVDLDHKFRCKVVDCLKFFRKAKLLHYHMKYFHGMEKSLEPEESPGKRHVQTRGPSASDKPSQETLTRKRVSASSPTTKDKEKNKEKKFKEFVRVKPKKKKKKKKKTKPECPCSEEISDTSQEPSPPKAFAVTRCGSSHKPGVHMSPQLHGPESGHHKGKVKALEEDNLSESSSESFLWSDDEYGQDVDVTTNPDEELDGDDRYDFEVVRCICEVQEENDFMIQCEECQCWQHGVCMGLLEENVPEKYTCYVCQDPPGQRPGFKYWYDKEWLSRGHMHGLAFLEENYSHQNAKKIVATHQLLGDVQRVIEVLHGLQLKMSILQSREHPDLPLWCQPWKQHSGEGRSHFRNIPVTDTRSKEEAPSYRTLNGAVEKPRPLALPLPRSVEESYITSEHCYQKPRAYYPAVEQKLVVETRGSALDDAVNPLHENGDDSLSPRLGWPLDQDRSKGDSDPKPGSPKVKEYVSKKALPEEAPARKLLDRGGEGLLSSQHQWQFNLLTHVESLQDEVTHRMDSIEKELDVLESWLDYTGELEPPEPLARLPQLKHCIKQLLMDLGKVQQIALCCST
UniProt Q9BZE2: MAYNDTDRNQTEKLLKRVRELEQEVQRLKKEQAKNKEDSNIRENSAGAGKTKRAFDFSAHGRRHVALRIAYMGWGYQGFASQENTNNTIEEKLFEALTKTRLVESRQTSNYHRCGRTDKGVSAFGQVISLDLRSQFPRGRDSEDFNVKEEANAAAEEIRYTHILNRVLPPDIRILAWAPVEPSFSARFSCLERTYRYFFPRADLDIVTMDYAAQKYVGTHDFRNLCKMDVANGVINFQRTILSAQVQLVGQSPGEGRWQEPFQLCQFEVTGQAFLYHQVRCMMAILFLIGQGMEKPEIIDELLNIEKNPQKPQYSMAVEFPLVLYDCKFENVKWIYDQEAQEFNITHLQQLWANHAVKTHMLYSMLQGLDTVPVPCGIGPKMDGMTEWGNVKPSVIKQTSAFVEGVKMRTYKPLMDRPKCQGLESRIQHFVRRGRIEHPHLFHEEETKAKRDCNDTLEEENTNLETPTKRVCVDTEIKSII

Compound: Nc1nc2c(ncn2[C@@H]2O[C@H](COP(=O)(O)OP(=O)(O)OP(=O)(O)O)[C@@H](O)[C@H]2O)c(=O)[nH]1 [guanosine triphosphate]
Assay: NP40-soluble protein abundance relative to vehicle (solubility fold change) (ratio); higher = more soluble protein in presence of GTP
Method in brief: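 Jurkat crude lysate prepared with a Dounce homogeniser was treated at eight concentrations spanning 0.1 to 10 mM, 10 min at room temperature then 3 min at 37 °C. Solubilisation with 0.8% NP40 and benzonase and ultracentrifugation preceded TMT labelling of the supernatant for LC-MS/MS. Fold change against the detergent-processed vehicle was determined per replicate from vsn-normalised intensities, across three independent experiments.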

Target	NP40-soluble protein abundance (concentration: 0.1mM)	NP40-soluble protein abundance (concentration: 0.5mM)	NP40-soluble protein abundance (concentration: 1mM)	NP40-soluble protein abundance (concentration: 2mM)	NP40-soluble protein abundance (concentration: 4mM)	NP40-soluble protein abundance (concentration: 6mM)	NP40-soluble protein abundance (concentration: 8mM)	NP40-soluble protein abundance (concentration: 10mM)
SH3GL1 (UniProt Q99961)	0.97 ± 0.018	0.922 ± 0.017	0.94 ± 0.021	0.89 ± 0.064	0.891 ± 0.055	0.887 ± 0.037	0.893 ± 0.029	0.901 ± 0.047
TGS1 (UniProt Q96RS0)	1.03 ± 0.083	1.04 ± 0.027	0.992 ± 0.024	1.01 ± 0.027	0.999 ± 0.088	1.03 ± 0.058	1.04 ± 0.088	1.03 ± 0.027
UniProt Q9BTY7	0.967 ± 0.086	0.856 ± 0.056	1.07 ± 0.088	1.05 ± 0.033	1.03 ± 0.082	0.998 ± 0.049	0.924 ± 0.18	1.03 ± 0.14
UniProt Q99729-3	0.929 ± 0.068	0.972 ± 0.1	1.03 ± 0.049	0.955 ± 0.11	0.934 ± 0.075	0.98 ± 0.072	1.03 ± 0.05	0.986 ± 0.085
HSD17B10 (UniProt Q99714)	0.909 ± 0.13	0.922 ± 0.1	0.873 ± 0.1	0.885 ± 0.093	0.881 ± 0.1	0.869 ± 0.09	0.85 ± 0.095	0.864 ± 0.081
UniProt Q96SU4 and related entries	0.982 ± 0.041	1.01 ± 0.042	0.911 ± 0.053	0.97 ± 0.049	0.909 ± 0.062	0.927 ± 0.061	0.926 ± 0.073	0.912 ± 0.066
UniProt Q9BT22 and related entries	1.1 ± 0.035	1.1 ± 0.017	1.01 ± 0.016	1.03 ± 0.031	0.978 ± 0.062	0.984 ± 0.036	0.999 ± 0.035	0.968 ± 0.046
CPPED1 (UniProt Q9BRF8)	1.03 ± 0.021	0.979 ± 0.054	0.94 ± 0.09	0.907 ± 0.093	0.923 ± 0.06	0.872 ± 0.094	0.89 ± 0.084	0.813 ± 0.13
UniProt Q9BZ95 and related entries	1.16 ± 0.028	1.11 ± 0.043	1.14 ± 0.048	1.2 ± 0.046	1.22 ± 0.041	1.28 ± 0.079	1.29 ± 0.081	1.25 ± 0.059
UniProt Q9BZE9 and related entries	0.988 ± 0.046	1.01 ± 0.084	1.04 ± 0.073	1.02 ± 0.062	1.01 ± 0.062	1.02 ± 0.025	1.05 ± 0.063	1 ± 0.075
UniProt Q9BX40 and related entries	0.984 ± 0.057	0.997 ± 0.064	1.11 ± 0.065	1.15 ± 0.057	1.18 ± 0.064	1.2 ± 0.03	1.23 ± 0.034	1.24 ± 0.069
UniProt Q99720 and related entries	1.09 ± 0.12	1.05 ± 0.071	0.888 ± 0.028	0.892 ± 0.09	0.836 ± 0.1	0.813 ± 0.12	0.788 ± 0.008	0.767 ± 0.15
PCGF6 (UniProt Q9BYE7)	1.03 ± 0.11	1.12 ± 0.056	0.983 ± 0.073	0.959 ± 0.14	1.04 ± 0.038	1.069 ± 0.0046	1.01 ± 0.11	0.988 ± 0.026
PSMB7 (UniProt Q99436)	0.958 ± 0.064	1.08 ± 0.12	1 ± 0.12	1.06 ± 0.15	1.01 ± 0.14	1.11 ± 0.18	1.01 ± 0.16	1.05 ± 0.17
UniProt Q96PY6 and related entries	1.03 ± 0.06	1.03 ± 0.096	1.09 ± 0.07	1.12 ± 0.015	1.11 ± 0.069	1.119 ± 0.0043	1.16 ± 0.078	1.07 ± 0.034
UniProt Q9BRJ6 and related entries	1.17 ± 0.32	1.17 ± 0.37	1.19 ± 0.25	1.28 ± 0.33	1.2 ± 0.44	1.3 ± 0.48	1.18 ± 0.36	1.38 ± 0.53
UniProt Q9BWE0 and related entries	0.955 ± 0.095	1.02 ± 0.088	1.01 ± 0.087	1.06 ± 0.1	1.09 ± 0.064	1.02 ± 0.053	1.05 ± 0.038	1.077 ± 0.01
UniProt Q9BSW2-2	1.02 ± 0.035	1.03 ± 0.055	1.06 ± 0.035	1.01 ± 0.083	0.987 ± 0.056	0.979 ± 0.11	0.999 ± 0.008	1.04 ± 0.031
UniProt Q9BVP2 and related entries	1.31 ± 0.073	1.3 ± 0.094	1.34 ± 0.11	1.51 ± 0.19	1.68 ± 0.17	1.73 ± 0.13	1.77 ± 0.2	1.88 ± 0.072
PARK7 (UniProt Q99497)	0.906 ± 0.068	0.917 ± 0.085	0.914 ± 0.075	0.851 ± 0.089	0.848 ± 0.075	0.856 ± 0.089	0.851 ± 0.099	0.826 ± 0.081
UniProt Q96RS6 and related entries	1.12 ± 0.12	1.11 ± 0.14	1.01 ± 0.1	0.999 ± 0.15	1 ± 0.15	0.979 ± 0.1	0.94 ± 0.044	0.894 ± 0.11
TMED9 (UniProt Q9BVK6)	0.994 ± 0.02	1.027 ± 0.0033	0.946 ± 0.025	0.922 ± 0.029	0.919 ± 0.037	0.909 ± 0.017	0.915 ± 0.041	0.901 ± 0.051
UniProt Q99728 and related entries	1.1 ± 0.29	0.982 ± 0.005	1.16 ± 0.23	1.05 ± 0.051	1.06 ± 0.038	1.05 ± 0.097	1.13 ± 0.27	1.12 ± 0.23
UniProt Q9BSF4	1.16 ± 0.16	1.09 ± 0.11	1.12 ± 0.085	1.11 ± 0.027	1.18 ± 0.091	1.17 ± 0.037	0.972 ± 0.071	0.97875 ± 0.0002
UniProt Q9BS26	0.969 ± 0.065	0.949 ± 0.059	0.921 ± 0.056	0.894 ± 0.059	0.898 ± 0.062	0.888 ± 0.049	0.896 ± 0.066	0.877 ± 0.066
UniProt Q9BW85	0.952 ± 0.036	0.96 ± 0.084	0.981 ± 0.067	0.926 ± 0.11	0.936 ± 0.1	0.941 ± 0.1	0.974 ± 0.068	0.991 ± 0.079
MRPL1 (UniProt Q9BYD6)	0.987 ± 0.016	1.02 ± 0.079	1.02 ± 0.061	1.05 ± 0.12	1.05 ± 0.14	1.05 ± 0.11	0.995 ± 0.083	0.965 ± 0.068
UniProt Q9BVI0 and related entries	1.11 ± 0.068	1.07 ± 0.12	1.19 ± 0.078	1.27 ± 0.057	1.52 ± 0.056	1.553 ± 0.012	1.77 ± 0.08	1.71 ± 0.071
PURB (UniProt Q96QR8)	0.946 ± 0.045	0.935 ± 0.049	0.966 ± 0.073	0.92 ± 0.053	0.927 ± 0.078	0.9 ± 0.071	0.902 ± 0.057	0.913 ± 0.067
PUS3 (UniProt Q9BZE2)	1.04 ± 0.054	1.03 ± 0.068	0.975 ± 0.1	0.947 ± 0.1	0.968 ± 0.048	0.912 ± 0.024	0.957 ± 0.095	0.881 ± 0.0091

Complete entries, quoted from the list. Values in the order: NP40-soluble protein abundance (concentration: 0.1mM) | NP40-soluble protein abundance (concentration: 0.5mM) | NP40-soluble protein abundance (concentration: 1mM) | NP40-soluble protein abundance (concentration: 2mM) | NP40-soluble protein abundance (concentration: 4mM) | NP40-soluble protein abundance (concentration: 6mM) | NP40-soluble protein abundance (concentration: 8mM) | NP40-soluble protein abundance (concentration: 10mM)
TMED9 (UniProt Q9BVK6) in the list: 0.994 ± 0.02 | 1.027 ± 0.0033 | 0.946 ± 0.025 | 0.922 ± 0.029 | 0.919 ± 0.037 | 0.909 ± 0.017 | 0.915 ± 0.041 | 0.901 ± 0.051
PUS3 (UniProt Q9BZE2) in the list: 1.04 ± 0.054 | 1.03 ± 0.068 | 0.975 ± 0.1 | 0.947 ± 0.1 | 0.968 ± 0.048 | 0.912 ± 0.024 | 0.957 ± 0.095 | 0.881 ± 0.0091
